Reference: article PMC4813576, “Mit1 Transcription Factor Mediates Methanol Signaling and Regulates the Alcohol Oxidase 1 (AOX1) Promoter in Pichia pastoris*”
For some assays here: A negative result means that nothing was seen under these conditions. For some assays here: At least one verdict rests on a figure or table, not on a statement of the authors. Tags and fusion partners may be left off the protein sequences shown.

Experiments:
[1] = molecular target: T1, Prm1 ZF domain (Pichia pastoris (Komagataella pastoris)) (UniProt C4R754); assay: EMSA; details: EMSA: 50 mM Tris-HCl pH 8.0, 50 mM NaCl, 1 mM DTT, 0.05% NP-40, 50 ug/ml poly[d(I-C)], 5% glycerol, 30 min at 4 C; about 30 nM probe, 0-1 uM protein; recombinant protein; protein details: His6; label: Cy5 (5' of forward primer); probe letters rebuilt from the primers and the genome
T1 sequence (looked up, limits assumed): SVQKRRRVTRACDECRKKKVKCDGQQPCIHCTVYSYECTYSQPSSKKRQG

[2] = molecular target: T2, Mit1 ZF domain (Pichia pastoris (Komagataella pastoris)) (UniProt C4R5Q1); assay: EMSA; details: EMSA: 50 mM Tris-HCl pH 8.0, 50 mM NaCl, 1 mM DTT, 0.05% NP-40, 50 ug/ml poly[d(I-C)], 5% glycerol, 30 min at 4 C; about 30 nM probe, 0-1 uM protein; recombinant protein; residues 1-150; protein details: His6; label: Cy5 (5' of forward primer); probe letters rebuilt from the primers and the genome
T2 sequence (looked up): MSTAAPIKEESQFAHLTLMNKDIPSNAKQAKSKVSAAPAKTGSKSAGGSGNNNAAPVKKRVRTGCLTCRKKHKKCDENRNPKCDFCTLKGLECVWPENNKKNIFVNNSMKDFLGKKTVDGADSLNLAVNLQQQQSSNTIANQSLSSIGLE

| Sequence | binding result [1] | binding result [2] |
| --- | --- | --- |
| GAGGGTGCGGTGGTGGGGGAATAAGCAGAACTGTAGATTTGACCAATCATCGTCACGTCTTACATCACAGAACGGGGGTACAGAAAGGGAATGAACGTAGAAGTGGAGTGAGGAGAGGAGAGGAGGAAGAGCGAGCAGATTAATTAGATAAAAACCACCCCTCCAAATCTGTTATTGTGTATCAAGTTTACGATTTTTCTCCTCCTTCAATCTCGCTCGCTGGCCAATGTCTGTTATCCTCCGTCCATGGGTTCTTCCCGTTCCGCTCTATCCGATAAGAGGTTGGCTTCCGAGAAGGTTGGTAGTTGGAATGACGTACAAAATGTACAACAAAGCAGATGTTGTTTAGC (double strand) [PMIT1-C] | binds |  |
| GATAGCACTCTGGATTGATCAGAAACTTCATATCCGGAGACAGATACTTGTCTGTCTTGCATATGGGGCAATATTCTTCAGTATCCATCCGATGATTACGATTAGTATTAGGTTGATGAATAATCCATAATGGTCCCCTGATGGAATATGCTCGCGAAGA (double strand) [PPRM1-A] |  | no binding |
